# Data reported in PubChem BioAssay AID1851 (National Center for Advancing Translational Sciences (NCATS), 2009).
# Amino acid sequences for entries named in this document (tags omitted).
# UniProt P33261, whole entry, looked up: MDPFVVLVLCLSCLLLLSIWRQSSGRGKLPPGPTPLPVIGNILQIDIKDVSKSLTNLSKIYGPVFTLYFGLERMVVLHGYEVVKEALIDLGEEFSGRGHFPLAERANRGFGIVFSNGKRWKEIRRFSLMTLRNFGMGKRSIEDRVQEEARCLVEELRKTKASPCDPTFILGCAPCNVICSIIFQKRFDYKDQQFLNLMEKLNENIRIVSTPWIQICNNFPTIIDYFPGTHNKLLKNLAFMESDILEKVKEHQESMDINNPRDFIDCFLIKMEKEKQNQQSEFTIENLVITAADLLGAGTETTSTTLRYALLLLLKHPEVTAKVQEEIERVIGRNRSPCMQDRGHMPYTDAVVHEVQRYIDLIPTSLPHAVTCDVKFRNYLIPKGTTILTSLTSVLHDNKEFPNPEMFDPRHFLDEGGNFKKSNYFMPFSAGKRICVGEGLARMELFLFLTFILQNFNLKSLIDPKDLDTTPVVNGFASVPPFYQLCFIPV
# The campaign covered roughly 16,000 compounds. About 5,800 (36%) were called active. Calls follow the shape of the dose curve; as a rule, active = well fitted curve in the direction sought with a large enough effect; inconclusive = small, poorly fitted or top-dose-only effect, or effect the other way; inactive = no such curve, though single readings can be large or run the other way. Inconclusive results, whose numbers are uncertain, are shown. Where the call is inconclusive, the potency comes from a doubtful curve fit.
# Target: Cytochrome P450 2C19 (Homo sapiens) (UniProt P33261)
# Experiment: Cytochrome panel assay with activity outcomes
# Conditions: recombinant CYP, pro-luciferin dealkylation, luminescence, p450-cyp2c19; activity, negative = inhibition: at 11.4 µM (top of the series)
# Method: The P450 gene superfamily is involved in the metabolism and clearance of xenobiotics. This assay used various human CYP P450 isozymes to measure the dealkylation of various pro-luciferin substrates to luciferin. The luciferin is then measured by luminescence after the addition of a luciferase detection reagent. Pro-luciferin substrate concentration in the assay was equal to its KM for its CYP P450 isozyme. Inhibitors and some substrates limit the production of luciferin, and decrease measured luminescence.
# NCGC Assay Protocol Summary:
# 1, Reagent, 2 uL, Isozyme and Pro-Luciferin
# 2, Library compounds, 23 nl, 40 uM to 0.24 nM dilution series
# 3, Controls, 23 nl, Isozyme specific inhibitor
# 4, Reagent, 2 uL, NADPH regeneration solution
# 5, Incubation time, 60 min, Isozyme specific temperature
# 6, Reagent, 4ul, Detection reagent
# 7, Incubation time, 20 min, Isozyme specific temperature
# 8, Detection, 1 sec, ViewLux luminescent read
# The luciferase-based P450-GloTM Screening Systems were obtained from Promega (Madison, WI) for CYP 1A2 (V9770), CYP 2C9 (V9790), CYP2 C19 (V9880), CYP 2D6 (V9890), and CYP 3A4 Luciferin-PPXE (V9910) and were adapted for 1,536-well microplates and an automated protocol. […]
# % is scaled to controls: 0 for no effect and ±100 for the full control effect.
Compound,"activity, negative = inhibition",AC50
O=C(O)C[O][Sb][O]CC(=O)O,inconclusive: 77.4% [partial curve],
CO[C@@H]([CH2][Hg])CN1C(=O)c2ccccc2S1(=O)=O.Cn1c(=O)c2nc[nH]c2n(C)c1=O,,"inconclusive: 3.98 µM [falling, single point]"
